# Percent effect of library compounds

By UniProt entry, the sequences of proteins in these tests, tags left out. Residues count along the entry.
UniProt P9WFT3, whole entry: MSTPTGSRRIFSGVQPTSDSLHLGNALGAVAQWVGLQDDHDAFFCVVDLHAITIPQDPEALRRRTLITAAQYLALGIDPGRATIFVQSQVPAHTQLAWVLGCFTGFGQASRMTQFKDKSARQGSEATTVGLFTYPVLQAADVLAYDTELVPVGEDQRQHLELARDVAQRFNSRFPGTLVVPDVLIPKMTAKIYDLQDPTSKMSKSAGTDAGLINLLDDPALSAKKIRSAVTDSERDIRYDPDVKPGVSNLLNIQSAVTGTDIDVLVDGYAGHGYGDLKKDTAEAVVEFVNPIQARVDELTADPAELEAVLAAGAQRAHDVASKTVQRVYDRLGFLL
UniProt Q4DA54, 1-478: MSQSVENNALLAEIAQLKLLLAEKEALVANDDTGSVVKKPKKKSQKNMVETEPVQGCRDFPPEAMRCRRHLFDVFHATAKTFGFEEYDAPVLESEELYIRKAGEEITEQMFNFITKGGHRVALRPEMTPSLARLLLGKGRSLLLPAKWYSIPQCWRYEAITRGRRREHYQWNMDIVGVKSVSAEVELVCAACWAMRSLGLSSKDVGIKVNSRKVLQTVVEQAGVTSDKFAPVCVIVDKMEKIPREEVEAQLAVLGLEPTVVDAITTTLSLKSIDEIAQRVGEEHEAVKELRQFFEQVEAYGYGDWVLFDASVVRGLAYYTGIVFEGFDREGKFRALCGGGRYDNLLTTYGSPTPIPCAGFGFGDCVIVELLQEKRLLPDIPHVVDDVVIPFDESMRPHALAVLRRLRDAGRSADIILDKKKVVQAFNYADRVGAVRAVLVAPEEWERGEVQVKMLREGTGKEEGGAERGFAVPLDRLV
UniProt Q8IDJ8, 1-583: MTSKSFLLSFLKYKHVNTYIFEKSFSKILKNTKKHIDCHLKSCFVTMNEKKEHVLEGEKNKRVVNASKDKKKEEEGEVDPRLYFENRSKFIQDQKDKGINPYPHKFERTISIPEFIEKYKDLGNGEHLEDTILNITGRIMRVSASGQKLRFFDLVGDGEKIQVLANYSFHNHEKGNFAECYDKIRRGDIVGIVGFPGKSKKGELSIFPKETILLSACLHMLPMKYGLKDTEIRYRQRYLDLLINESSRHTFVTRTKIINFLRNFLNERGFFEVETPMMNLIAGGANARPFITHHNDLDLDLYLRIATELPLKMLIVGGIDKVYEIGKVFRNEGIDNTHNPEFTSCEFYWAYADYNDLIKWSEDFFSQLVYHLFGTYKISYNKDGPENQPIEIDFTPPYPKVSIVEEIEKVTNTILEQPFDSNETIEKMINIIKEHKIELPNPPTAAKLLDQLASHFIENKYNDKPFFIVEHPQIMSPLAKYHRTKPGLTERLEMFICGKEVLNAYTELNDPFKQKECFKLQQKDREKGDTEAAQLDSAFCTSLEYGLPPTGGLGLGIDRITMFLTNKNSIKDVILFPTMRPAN
UniProt P9WNZ1, whole entry: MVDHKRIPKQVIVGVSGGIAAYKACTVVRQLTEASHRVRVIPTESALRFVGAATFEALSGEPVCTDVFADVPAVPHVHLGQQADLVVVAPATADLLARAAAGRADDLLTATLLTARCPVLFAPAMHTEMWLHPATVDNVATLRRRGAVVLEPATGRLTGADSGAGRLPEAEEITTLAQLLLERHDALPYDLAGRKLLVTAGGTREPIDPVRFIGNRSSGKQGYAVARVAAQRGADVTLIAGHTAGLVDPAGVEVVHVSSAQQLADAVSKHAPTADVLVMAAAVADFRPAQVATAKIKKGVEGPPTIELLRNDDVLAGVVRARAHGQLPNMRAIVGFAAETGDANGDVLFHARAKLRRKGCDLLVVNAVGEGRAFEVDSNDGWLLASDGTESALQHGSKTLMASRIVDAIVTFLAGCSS
UniProt I6X8D2, whole entry: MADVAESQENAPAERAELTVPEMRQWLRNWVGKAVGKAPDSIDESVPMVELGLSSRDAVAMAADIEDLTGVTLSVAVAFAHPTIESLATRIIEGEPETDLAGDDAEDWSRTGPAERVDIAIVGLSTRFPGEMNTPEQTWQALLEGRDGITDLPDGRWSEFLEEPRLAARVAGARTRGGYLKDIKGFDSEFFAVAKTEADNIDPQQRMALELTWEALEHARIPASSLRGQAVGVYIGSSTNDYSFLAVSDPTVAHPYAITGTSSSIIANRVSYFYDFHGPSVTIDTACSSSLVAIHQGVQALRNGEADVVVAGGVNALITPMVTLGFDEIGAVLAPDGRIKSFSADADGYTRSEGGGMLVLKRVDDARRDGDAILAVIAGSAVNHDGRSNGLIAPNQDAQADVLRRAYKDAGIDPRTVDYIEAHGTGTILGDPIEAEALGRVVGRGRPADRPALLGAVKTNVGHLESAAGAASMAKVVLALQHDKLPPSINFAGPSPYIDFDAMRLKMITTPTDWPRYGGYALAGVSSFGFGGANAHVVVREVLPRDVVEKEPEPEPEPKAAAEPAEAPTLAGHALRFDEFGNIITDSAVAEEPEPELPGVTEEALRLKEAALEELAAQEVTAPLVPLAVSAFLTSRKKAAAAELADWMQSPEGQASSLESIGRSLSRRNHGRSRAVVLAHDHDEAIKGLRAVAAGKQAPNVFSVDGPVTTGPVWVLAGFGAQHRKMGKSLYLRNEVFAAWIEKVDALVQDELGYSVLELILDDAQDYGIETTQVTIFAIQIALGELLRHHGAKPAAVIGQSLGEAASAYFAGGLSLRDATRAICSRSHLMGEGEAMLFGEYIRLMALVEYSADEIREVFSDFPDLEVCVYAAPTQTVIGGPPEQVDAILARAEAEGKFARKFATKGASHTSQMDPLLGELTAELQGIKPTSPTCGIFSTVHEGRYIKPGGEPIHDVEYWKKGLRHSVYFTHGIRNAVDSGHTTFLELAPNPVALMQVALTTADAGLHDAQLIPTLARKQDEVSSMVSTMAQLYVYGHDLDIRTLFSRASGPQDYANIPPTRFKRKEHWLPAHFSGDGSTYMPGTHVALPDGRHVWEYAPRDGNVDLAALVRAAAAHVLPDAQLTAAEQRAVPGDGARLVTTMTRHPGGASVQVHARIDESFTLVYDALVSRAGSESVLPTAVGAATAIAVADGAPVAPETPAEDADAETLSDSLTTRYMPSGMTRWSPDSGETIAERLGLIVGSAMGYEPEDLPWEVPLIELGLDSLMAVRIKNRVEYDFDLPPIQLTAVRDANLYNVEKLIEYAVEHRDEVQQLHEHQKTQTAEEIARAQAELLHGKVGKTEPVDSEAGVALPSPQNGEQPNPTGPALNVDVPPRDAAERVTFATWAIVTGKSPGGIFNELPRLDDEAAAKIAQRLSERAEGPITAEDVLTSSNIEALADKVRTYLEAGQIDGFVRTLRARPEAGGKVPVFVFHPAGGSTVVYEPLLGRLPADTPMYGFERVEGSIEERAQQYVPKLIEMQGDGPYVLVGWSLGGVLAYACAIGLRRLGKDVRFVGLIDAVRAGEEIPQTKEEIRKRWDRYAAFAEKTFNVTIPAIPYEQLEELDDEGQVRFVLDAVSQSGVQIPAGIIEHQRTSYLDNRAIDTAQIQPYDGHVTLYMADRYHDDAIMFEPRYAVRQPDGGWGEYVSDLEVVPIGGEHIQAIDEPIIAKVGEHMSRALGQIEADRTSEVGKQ

A: 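Enzyme assay of tryptophanyl-tRNA synthetase; the read-out is not stated. Target: Tryptophan-tRNA ligase, Mycobacterium tuberculosis (UniProt P9WFT3). Tested at 10 µM. Direction is not recorded; retested compounds ran higher, which suggests that high means inhibition. Size under these conditions: about 65,000 compounds, about 64 of them at 50% or above in at least one test.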
B: 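Histidine-tRNA ligase, Trypanosoma cruzi CL Brener (UniProt Q4DA54). Enzyme assay of histidyl-tRNA synthetase; the read-out is not stated. Compounds at 30 µM. Direction is inferred from retests: higher values go with stronger inhibition. About 69,000 compounds were tested under these conditions; 0.045% (about 31) showed 50% or more at least once.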
C: 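Lysine-tRNA ligase, Plasmodium falciparum 3D7 (UniProt Q8IDJ8). Enzyme assay of the cytosolic lysyl-tRNA synthetase in 384-well plates, read by luminescence. Compounds at 30 µM. Higher reads as stronger inhibition, judged from the few compounds that gave an IC50. Of about 69,000 compounds tested this way, about 49 (0.071%) reached 50% or more in at least one test.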
D: 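Enzyme assay of CoaBC with a phosphate dye (Biomol Green) read at 650 nm. Target: Coenzyme A biosynthesis protein CoaBC, Mycobacterium tuberculosis (UniProt P9WNZ1). Compounds at 30 µM. Direction is inferred from only a few compounds that gave an IC50; most scored high, so higher reads as stronger inhibition. Most strong results did not repeat in a second test. Size under these conditions: about 67,000 compounds, about 40 of them at 50% or above in at least one test.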
E: 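Polyketide synthase Pks13, Mycobacterium tuberculosis (UniProt I6X8D2). Enzyme assay of the thioesterase domain of polyketide synthase 13; the read-out is not stated. Compounds at 30 µM. Higher reads as stronger inhibition (inferred from which compounds were picked for retests). Size under these conditions: about 67,000 compounds, about 300 of them at 50% or above in at least one test.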
F: 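Cell assay of Leishmania donovani living inside macrophages; the read-out is not stated. Compounds at 30 µM. The record gives no direction; compounds that gave an IC50 in retests scored well above the rest, so higher reads as stronger inhibition. Size under these conditions: about 69,000 compounds, about 1,000 of them at 50% or above in at least one test.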

Results are given as percent effect. The controls that fix the scale are not given in the record; negative values are as filed. The compounds are a random part of those screened. Two or more numbers in one place are separate tests of the same structure; such repeats can differ widely.

{"structure": "C[C@@H]1CN(CCC(=O)NCc2ccccc2Cl)CC[C@@]1(O)C1CCC1", "A": 0.361, "B": 0, "C": 0.5849, "D": -9.631, "E": -10.69, "F": 5.866}
{"structure": "Cc1cc(C)n(CC2CCN(CC(O)COc3ccccc3)CC2)n1", "stereo": "configuration not stated", "A": 3.92, "B": -6.957, "C": 4.667, "D": -4.317, "E": -12.23, "F": 28.24}
{"structure": "Cc1ccc(C(=O)Oc2cc(=O)n3cccc(C)c3n2)cc1", "A": 0.3408, "B": 3.659, "C": -6.29, "D": -1.013, "E": 23.28, "F": "-6.109 and 9.906"}
{"structure": "Clc1ccc(CN2CCN(Cn3nccc3-c3cccnc3)CC2)s1", "A": 7.418, "B": 0.5348, "C": -0.6444, "D": 9.565, "E": -27, "F": 56.59}
{"structure": "Cc1nc(C)n(CC2CCCN2CCCOc2ccc(F)cc2)n1", "stereo": "configuration not stated", "A": 1.652, "B": 6.767, "C": 2.927, "D": 5.141, "E": -35.58, "F": 35.17}
{"structure": "CC(NC(=O)c1cccc[n+]1[O-])c1ccc2c(c1)CCC(=O)N2", "stereo": "configuration not stated", "A": -2.167, "B": 10.39, "C": 6.23, "E": -2.933, "F": -3.46}
{"structure": "Cc1ccn(CCNC(=O)C2CCN(S(=O)(=O)c3ccc(F)cc3)C2)n1", "stereo": "configuration not stated", "A": 1.098, "B": 3.042, "C": 0.2735, "D": -0.618, "F": 19.82}
{"structure": "Cc1cnn(C2CCCN(C(=O)Cc3cn4ccccc4n3)C2)c1", "stereo": "configuration not stated", "A": 1.852, "B": 1.128, "C": 5.202, "D": 1.044, "E": -8.954, "F": 23.48}
{"structure": "Cc1ccc(CN2CC[C@H]3C[C@H](c4nc(C5CC5)cs4)O[C@@H]3C2)o1", "A": -2.169, "B": 7.921, "C": 5.492, "D": 8.646, "E": -24.65}
{"structure": "Cc1ccc(N2CCC(c3nccn3Cc3cscn3)CC2)nn1", "A": -3.961, "B": 5.587, "C": 4.471, "D": 3.599, "E": -29.15, "F": 16.5}
{"structure": "O=C(CN1CCc2[nH]c3ccccc3c2C1)NCc1ccco1", "A": 1.845, "B": 0.9804, "C": 3.425, "D": 5.104, "E": -10.25, "F": 13.8}
{"structure": "CSC(C)C(=O)NCCCc1cc(N)n(-c2ccccc2)n1", "stereo": "configuration not stated", "A": -4.775, "B": 4.132, "C": -5.877, "D": -4.051, "E": -7.675, "F": -14.14}
{"structure": "CS(=O)(=O)N1C[C@@H]2COC[C@]2(COCC(=O)N2CCCC2)C1", "B": -2.116, "C": -0.06427, "D": 4.691, "E": -0.6288}
{"structure": "Cc1cccc(CN2CCC(NS(C)(=O)=O)CC2)n1", "A": 2.763, "B": 16.47, "C": 6.13, "D": 1.966, "F": -4.252}
{"structure": "Cc1n[nH]c(C)c1CC(=O)N1CCCN(C)C2(CCN(C)CC2)C1", "A": 2.938, "B": 1.948, "C": 9.017, "D": -4.716, "E": -19.66, "F": -8.247}
{"structure": "COC(=O)CN1CC(c2nc(Cc3ccccc3)no2)C1", "A": 0.2138, "B": 3.306, "C": 0.7303, "D": 14.71, "E": -1.604}
{"structure": "COc1ccccc1C1(CNCc2ccc([S+](C)[O-])cc2)CC1", "stereo": "configuration not stated", "A": 1.078, "B": 3.093, "C": -0.2418, "D": -7.311, "E": 0.3887, "F": 2.871}
{"structure": "Cc1c(C(C)NCC2CCCC2)cnn1-c1ccc(F)cc1F", "stereo": "configuration not stated", "A": -1.767, "B": 0.5587, "C": -2.787, "D": 1.613, "E": -18.13, "F": 26.64}
{"structure": "CCc1ncc2c(n1)CN(Cc1nc(C)c(C)o1)CC2", "A": 0.6415, "B": 7.438, "C": 3.999, "D": -3.198, "E": 5.459, "F": 12.64}
{"structure": "CN1CC2(CCCN(Cc3ccccc3OCC(=O)O)C2)OC1=O", "stereo": "configuration not stated", "A": 0.7064, "B": 9.554, "C": 5.318, "E": -26.32, "F": 23.26}
{"structure": "CCCc1nn(C2CCN(C(C)C)C2=O)c(=O)o1", "stereo": "configuration not stated", "A": -0.7452, "B": 0, "C": -1.468, "D": 15.4, "E": -2.261, "F": 51.41}
{"structure": "OCCN1CCOC2(CCCN(c3ncc(F)cn3)C2)C1", "stereo": "configuration not stated", "A": -4.941, "B": 12.64, "C": 4.88, "D": 0.6148, "E": -16.21}
{"structure": "O=C(CC1=CCCCC1)Nc1ncn(CC(=O)N2CCCCCC2)n1", "A": -10.19, "B": 3.529, "C": 1.027, "D": 5.115, "E": -12.05, "F": 5.772}
{"structure": "O=C(CN1CCNCC1)NCc1ccc2sccc2c1", "A": -2.362, "B": 7.071, "C": 6.931, "D": -0.2558, "E": -9.728, "F": 25.53}

2 of the entries, repeated:

{"structure": "Cc1ccc(CN2CC[C@H]3C[C@H](c4nc(C5CC5)cs4)O[C@@H]3C2)o1", "A": -2.169, "B": 7.921, "C": 5.492, "D": 8.646, "E": -24.65}
{"structure": "CS(=O)(=O)N1C[C@@H]2COC[C@]2(COCC(=O)N2CCCC2)C1", "B": -2.116, "C": -0.06427, "D": 4.691, "E": -0.6288}

From ChEMBL document CHEMBL3988442, “University of Dundee, Small-Polar-MMV Screening Library” (2021).